# The other results are listed elsewhere or left out.
# B1: Blon0732mut (Bifidobacterium longum) (protein)
# chain: MPTSEHKADDATRHLTLIPAPVTLEYTHGTALIGPLVTIEDADQSWETLPIEQLSDELRHRYGVTVLRRRTHGTVISLGLDSRLAHDEYTLDVSESEGIRVRGGGESGLRYGLQTLRQIIGQTSRAIPCLHIQDKPAFAVRAYSLDVTRGRVPTMEFLTWFVDQLALYKYNQFQLYVEHAFAFVELSEAWRGTDPLTAADITYLDEYCARRGIELVPSLATFGHMYMNLRTREHRGLGEFPEDADRPFSFIERMEHHTLNAADPKAHDFASRLIEEYAPLFRSKSFNIGGNETFDLGRGRSAQDAPEAGRDELYAGFVRDLCETLARHGRQPMLWADIALESPRTMDLLPGDITMLNWMYEPQIDESKIQTIATQGRRQFVCPAVRAWSRFFPDYAGAWLNTYHMALAGTKYDAEGMVVTDWGDYGHVNDPRLSVPGLCYGAQNAWNPIEIDAHEMNRRISALVYGDESGRIMDCLARIDSDGVSFPWDLAVQVLELEYGSGTGALNMDVAACMERSSGGKLTLDRTLGCDDARRRMLQWNRERIERRRDCDQVLRDCGDAFAGLDKGGLTAEFLSVMLDGQRLFNELGEELLALADGKDVGSGANRLAADLELWFERYRAQWLSVGRHAELARIAHVVWSLADILRRGAL
# Tests used:
# Experiment in all cases: glycan array binding signal (z-score within array); higher = stronger binding
# Conditions in all cases: glycan notation: IUPAC condensed, linker removed
# Neu5Ac(a2-8)Neu5Ac = molecular target: Neu5Ac(a2-8)Neu5Ac
# Method in brief: (§1)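 Negative Z-scores can be read as non-binding. The Z-score is calculated within each array and then averaged across arrays of one protein sequence at different concentrations or buffers and across linkers. Arrays, 3228 in all, were curated from the Consortium for Functional Glycomics database and kept only where the protein sequence was available.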
# [1] = molecular target: Neu5Ac(a2-8)Neu5Ac(a2-3)Gal(b1-3)GalNAc(b1-4)[Neu5Ac(a2-3)]Gal(b1-4)Glc
# Method in brief: as §1
# [2] = molecular target: Neu5Ac(a2-8)Neu5Ac(a2-3)Gal(b1-3)GalNAc(b1-4)[Neu5Ac(a2-8)Neu5Ac(a2-3)]Gal(b1-4)Glc
# Method in brief: as §1
# [3] = molecular target: Neu5Ac(a2-8)Neu5Ac(a2-3)Gal(b1-4)Glc
# Method in brief: as §1
# [4] = molecular target: Neu5Ac(a2-8)Neu5Ac(a2-3)Gal(b1-4)GlcNAc
# Method in brief: as §1
# [5] = molecular target: Neu5Ac(a2-8)Neu5Ac(a2-3)[Gal(b1-3)GalNAc(b1-4)]Gal(b1-4)Glc
# Method in brief: as §1
# [6] = molecular target: Neu5Ac(a2-8)Neu5Ac(a2-3)[GalNAc(b1-4)]Gal(b1-4)Glc
# Method in brief: as §1
# [7] = molecular target: Neu5Ac(a2-8)Neu5Ac(a2-8)Neu5Ac
# Method in brief: as §1
# [8] = molecular target: Neu5Ac(a2-8)Neu5Ac(a2-8)Neu5Ac(a2-3)Gal(b1-4)Glc
# Method in brief: as §1
# [9] = molecular target: Neu5Ac(a2-8)Neu5Ac(a2-8)Neu5Ac(a2-3)[Gal(b1-3)GalNAc(b1-4)]Gal(b1-4)Glc
# Method in brief: as §1
# [10] = molecular target: Neu5Ac(a2-8)Neu5Ac(a2-8)Neu5Ac(a2-3)[GalNAc(b1-4)]Gal(b1-4)Glc
# Method in brief: as §1
# [11] = molecular target: Neu5Ac(a2-8)Neu5Ac(a2-8)Neu5Ac(a2-8)Neu5Ac(a2-3)[GalNAc(b1-4)]Gal(b1-4)Glc
# Method in brief: as §1
# [12] = molecular target: Neu5Ac(a2-8)Neu5Gc(a2-3)Gal(b1-4)GlcNAc
# Method in brief: as §1
# [13] = molecular target: Neu5Ac(b2-6)Gal(b1-4)GlcNAc
# Method in brief: as §1
# Neu5Ac(b2-6)GalNAc = molecular target: Neu5Ac(b2-6)GalNAc
# Method in brief: as §1
# [14] = molecular target: Neu5Ac9Ac(a2-3)Gal(b1-4)GlcNAc
# Method in brief: as §1
# [15] = molecular target: Neu5Ac9Ac(a2-6)Gal(b1-4)GlcNAc
# Method in brief: as §1
# [16] = molecular target: Neu5Gc(a2-3)Gal(b1-3)GlcNAc
# Method in brief: as §1
# [17] = molecular target: Neu5Gc(a2-3)Gal(b1-3)[Fuc(a1-4)]GlcNAc
# Method in brief: as §1
# Neu5Gc(a2-3)Gal(b1-4)Glc = molecular target: Neu5Gc(a2-3)Gal(b1-4)Glc
# Method in brief: as §1
# [18] = molecular target: Neu5Gc(a2-3)Gal(b1-4)GlcNAc
# Method in brief: as §1
# [19] = molecular target: Neu5Gc(a2-3)Gal(b1-4)GlcNAc(b1-3)Gal(b1-4)GlcNAc(b1-2)Man(a1-3)[Neu5Gc(a2-3)Gal(b1-4)GlcNAc(b1-3)Gal(b1-4)GlcNAc(b1-2)Man(a1-6)]Man(b1-4)GlcNAc(b1-4)GlcNAc
# Method in brief: as §1
# [20] = molecular target: Neu5Gc(a2-3)Gal(b1-4)[Fuc(a1-3)]GlcNAc
# Method in brief: as §1
# [21] = molecular target: Neu5Gc(a2-6)Gal(b1-4)GlcNAc
# Method in brief: as §1
# Neu5Gc(a2-6)GalNAc = molecular target: Neu5Gc(a2-6)GalNAc
# Method in brief: as §1
# [22] = molecular target: Neu5Gc(a2-8)Neu5Ac(a2-3)Gal(b1-4)GlcNAc
# Method in brief: as §1
# [23] = molecular target: Neu5Gc(a2-8)Neu5Gc(a2-3)Gal(b1-4)GlcNAc
# Method in brief: as §1
# [24] = molecular target: Neu5Gc(a2-8)Neu5Gc(a2-3)Gal(b1-4)GlcNAc(b1-3)Gal(b1-4)GlcNAc
# Method in brief: as §1
# [25] = molecular target: Neu5Gc(a2-8)Neu5Gc(a2-6)Gal(b1-4)GlcNAc
# Method in brief: as §1
# [26] = molecular target: Neu5Gc(b2-6)Gal(b1-4)GlcNAc
# Method in brief: as §1
binder,measurement,setting,value
B1,glycan array binding signal (z-score),Neu5Ac(a2-8)Neu5Ac,0.726
same,glycan array binding signal (z-score),[1],-0.875
same,glycan array binding signal (z-score),[2],1.11
same,glycan array binding signal (z-score),[3],-0.015
same,glycan array binding signal (z-score),[4],-0.577
same,glycan array binding signal (z-score),[5],-0.767
same,glycan array binding signal (z-score),[6],0.328
same,glycan array binding signal (z-score),[7],0.235
same,glycan array binding signal (z-score),[8],-0.167
same,glycan array binding signal (z-score),[9],0.27
same,glycan array binding signal (z-score),[10],-0.916
same,glycan array binding signal (z-score),[11],-0.743
same,glycan array binding signal (z-score),[12],-0.49
same,glycan array binding signal (z-score),[13],-1.08
same,glycan array binding signal (z-score),Neu5Ac(b2-6)GalNAc,-1.24
same,glycan array binding signal (z-score),[14],-0.753
same,glycan array binding signal (z-score),[15],-0.165
same,glycan array binding signal (z-score),[16],-0.667
same,glycan array binding signal (z-score),[17],-0.316
same,glycan array binding signal (z-score),Neu5Gc(a2-3)Gal(b1-4)Glc,2.58
same,glycan array binding signal (z-score),[18],-1.19
same,glycan array binding signal (z-score),[19],-0.334
same,glycan array binding signal (z-score),[20],-0.603
same,glycan array binding signal (z-score),[21],0.213
same,glycan array binding signal (z-score),Neu5Gc(a2-6)GalNAc,-0.617
same,glycan array binding signal (z-score),[22],-0.558
same,glycan array binding signal (z-score),[23],-0.813
same,glycan array binding signal (z-score),[24],-0.866
same,glycan array binding signal (z-score),[25],-0.874
same,glycan array binding signal (z-score),[26],-0.096

# Two entries picked at random from those above, as already listed:
binder,measurement,setting,value
B1,glycan array binding signal (z-score),[17],-0.316
same,glycan array binding signal (z-score),[4],-0.577

# Source: the supplement of paper PMC8728848
